This is one part of the list.
These targets were tested with COc1cc2ncnc(Nc3ccc(F)c(Cl)c3)c2cc1OCCCN1CCOCC1 [gefitinib] (assay: log2 fold change, soluble protein after heating vs DMSO (PISA); higher = thermal stabilisation; K562 lysate, 10 uM; active = over 0.2 and 3.5 SD of the protein, either way, in both replicates (recomputed)).
Procedure, shortened: (§1)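 Log-two fold change in thermal stability relative to solvent controls is reported from duplicates. For each sample, crude K562 extract from dounce-homogenised pellets in PBS pH 7.4 with 1 mM MgCl2, at 1 mg/mL protein, was treated with 10 μM compound for 30 min. Aliquots heated for 3 min across 48°C-58°C were pooled, brought to 0.5% NP-40 at 4°C and cleared at 21,000xg for 90 min. The supernatant was quantified by TMTpro 16plex LC-MS/MS with channel sums equalised.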

Sequences of proteins named here, by UniProt entry; tags and fusion partners are left off. A change or cut given only in a name is not applied to a line headed by its entry.
UniProt P49720: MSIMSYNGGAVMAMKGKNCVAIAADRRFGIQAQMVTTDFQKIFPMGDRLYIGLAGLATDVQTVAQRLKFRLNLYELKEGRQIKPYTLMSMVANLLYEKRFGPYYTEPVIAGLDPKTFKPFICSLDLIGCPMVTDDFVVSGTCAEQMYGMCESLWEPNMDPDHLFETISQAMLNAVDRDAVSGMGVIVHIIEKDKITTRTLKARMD
UniProt Q15257: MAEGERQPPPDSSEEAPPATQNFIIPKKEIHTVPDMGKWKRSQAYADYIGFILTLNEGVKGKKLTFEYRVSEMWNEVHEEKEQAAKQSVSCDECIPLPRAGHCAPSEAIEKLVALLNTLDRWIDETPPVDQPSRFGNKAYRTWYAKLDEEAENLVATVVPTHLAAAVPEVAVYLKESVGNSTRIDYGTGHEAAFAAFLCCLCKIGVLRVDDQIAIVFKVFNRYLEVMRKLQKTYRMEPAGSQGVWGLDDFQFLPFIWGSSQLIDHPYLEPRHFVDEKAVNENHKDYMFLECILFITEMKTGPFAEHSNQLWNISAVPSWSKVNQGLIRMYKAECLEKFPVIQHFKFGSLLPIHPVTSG
UniProt Q9UNM6: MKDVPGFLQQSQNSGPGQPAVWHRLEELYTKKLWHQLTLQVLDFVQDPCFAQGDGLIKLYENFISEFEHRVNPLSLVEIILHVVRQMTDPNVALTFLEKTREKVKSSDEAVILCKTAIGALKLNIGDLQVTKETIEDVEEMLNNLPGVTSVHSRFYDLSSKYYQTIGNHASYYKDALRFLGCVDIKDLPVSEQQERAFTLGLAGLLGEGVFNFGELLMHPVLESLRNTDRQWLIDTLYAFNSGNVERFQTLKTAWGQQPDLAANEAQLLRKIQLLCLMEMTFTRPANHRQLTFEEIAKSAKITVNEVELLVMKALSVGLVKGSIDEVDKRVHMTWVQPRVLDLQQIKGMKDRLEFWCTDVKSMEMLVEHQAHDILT
UniProt P60484: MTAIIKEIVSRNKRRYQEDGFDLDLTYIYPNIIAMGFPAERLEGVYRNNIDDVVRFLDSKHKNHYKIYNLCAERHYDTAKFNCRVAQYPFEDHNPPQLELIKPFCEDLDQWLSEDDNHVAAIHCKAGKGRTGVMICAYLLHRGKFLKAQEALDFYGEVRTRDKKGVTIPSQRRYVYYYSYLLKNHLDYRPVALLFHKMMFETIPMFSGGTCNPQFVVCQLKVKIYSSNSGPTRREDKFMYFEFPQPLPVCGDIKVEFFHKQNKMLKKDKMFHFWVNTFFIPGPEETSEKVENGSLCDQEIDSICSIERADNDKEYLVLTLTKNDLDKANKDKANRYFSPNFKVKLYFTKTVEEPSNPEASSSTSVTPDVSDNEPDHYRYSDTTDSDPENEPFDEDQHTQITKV
UniProt Q05397, whole entry, looked up: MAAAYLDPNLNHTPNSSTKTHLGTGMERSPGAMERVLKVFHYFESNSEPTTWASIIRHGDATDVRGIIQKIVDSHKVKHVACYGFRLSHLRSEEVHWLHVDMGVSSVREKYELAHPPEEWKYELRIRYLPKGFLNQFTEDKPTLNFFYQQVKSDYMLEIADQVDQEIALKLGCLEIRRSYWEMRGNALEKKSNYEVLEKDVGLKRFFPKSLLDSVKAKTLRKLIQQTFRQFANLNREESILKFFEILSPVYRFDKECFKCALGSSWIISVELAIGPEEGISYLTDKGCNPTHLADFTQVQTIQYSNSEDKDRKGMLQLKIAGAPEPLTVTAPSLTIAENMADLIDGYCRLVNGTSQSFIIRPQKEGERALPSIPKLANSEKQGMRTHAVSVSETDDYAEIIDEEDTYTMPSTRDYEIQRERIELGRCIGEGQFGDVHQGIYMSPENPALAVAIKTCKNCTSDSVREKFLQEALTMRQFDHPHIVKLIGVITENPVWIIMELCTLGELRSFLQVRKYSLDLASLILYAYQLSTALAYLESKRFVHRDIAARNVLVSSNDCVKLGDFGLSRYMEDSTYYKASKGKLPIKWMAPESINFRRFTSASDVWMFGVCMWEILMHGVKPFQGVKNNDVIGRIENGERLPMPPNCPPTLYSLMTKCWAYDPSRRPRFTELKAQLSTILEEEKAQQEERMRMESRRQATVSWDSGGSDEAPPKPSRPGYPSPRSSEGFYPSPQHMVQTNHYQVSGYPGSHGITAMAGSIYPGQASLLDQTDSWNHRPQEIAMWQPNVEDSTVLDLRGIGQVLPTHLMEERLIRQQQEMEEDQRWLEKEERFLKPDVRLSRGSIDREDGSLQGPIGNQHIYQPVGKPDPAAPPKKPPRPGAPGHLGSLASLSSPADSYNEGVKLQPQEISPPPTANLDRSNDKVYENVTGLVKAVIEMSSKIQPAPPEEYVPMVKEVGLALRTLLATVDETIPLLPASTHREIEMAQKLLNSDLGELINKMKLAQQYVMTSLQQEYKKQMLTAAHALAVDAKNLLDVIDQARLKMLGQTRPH
UniProt Q9UL46, whole entry, looked up: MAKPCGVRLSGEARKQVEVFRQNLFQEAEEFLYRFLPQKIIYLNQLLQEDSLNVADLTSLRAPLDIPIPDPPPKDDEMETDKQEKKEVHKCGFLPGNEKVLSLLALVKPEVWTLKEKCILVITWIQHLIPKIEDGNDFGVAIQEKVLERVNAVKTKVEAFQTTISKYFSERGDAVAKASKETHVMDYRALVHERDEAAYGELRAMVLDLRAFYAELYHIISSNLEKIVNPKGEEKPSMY
UniProt Q8TB72: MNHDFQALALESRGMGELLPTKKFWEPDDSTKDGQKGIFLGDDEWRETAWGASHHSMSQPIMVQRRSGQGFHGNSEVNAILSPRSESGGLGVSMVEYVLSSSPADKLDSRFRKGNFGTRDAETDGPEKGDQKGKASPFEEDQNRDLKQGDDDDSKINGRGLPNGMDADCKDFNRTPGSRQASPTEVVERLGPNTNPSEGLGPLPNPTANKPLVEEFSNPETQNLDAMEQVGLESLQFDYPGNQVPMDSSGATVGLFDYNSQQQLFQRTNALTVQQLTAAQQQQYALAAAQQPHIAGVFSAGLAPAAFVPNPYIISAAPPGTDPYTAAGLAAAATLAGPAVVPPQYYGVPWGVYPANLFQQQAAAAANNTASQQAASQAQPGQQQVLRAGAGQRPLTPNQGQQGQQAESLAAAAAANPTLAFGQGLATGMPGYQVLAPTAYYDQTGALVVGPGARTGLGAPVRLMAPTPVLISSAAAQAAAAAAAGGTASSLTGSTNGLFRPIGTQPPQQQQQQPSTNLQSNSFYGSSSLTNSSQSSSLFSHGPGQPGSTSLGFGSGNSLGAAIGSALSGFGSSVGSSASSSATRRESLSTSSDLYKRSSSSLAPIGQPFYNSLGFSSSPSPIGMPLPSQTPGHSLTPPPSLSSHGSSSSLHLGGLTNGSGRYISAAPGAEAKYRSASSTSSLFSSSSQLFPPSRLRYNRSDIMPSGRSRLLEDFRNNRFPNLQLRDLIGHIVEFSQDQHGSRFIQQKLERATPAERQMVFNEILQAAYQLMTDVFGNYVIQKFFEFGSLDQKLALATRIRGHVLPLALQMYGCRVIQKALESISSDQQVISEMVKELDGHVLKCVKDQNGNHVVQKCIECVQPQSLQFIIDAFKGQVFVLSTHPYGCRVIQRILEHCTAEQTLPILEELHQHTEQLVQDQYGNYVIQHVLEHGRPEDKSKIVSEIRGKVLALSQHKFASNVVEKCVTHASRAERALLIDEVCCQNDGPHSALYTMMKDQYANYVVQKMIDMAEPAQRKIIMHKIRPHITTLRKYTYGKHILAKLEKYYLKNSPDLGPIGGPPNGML
UniProt O95758: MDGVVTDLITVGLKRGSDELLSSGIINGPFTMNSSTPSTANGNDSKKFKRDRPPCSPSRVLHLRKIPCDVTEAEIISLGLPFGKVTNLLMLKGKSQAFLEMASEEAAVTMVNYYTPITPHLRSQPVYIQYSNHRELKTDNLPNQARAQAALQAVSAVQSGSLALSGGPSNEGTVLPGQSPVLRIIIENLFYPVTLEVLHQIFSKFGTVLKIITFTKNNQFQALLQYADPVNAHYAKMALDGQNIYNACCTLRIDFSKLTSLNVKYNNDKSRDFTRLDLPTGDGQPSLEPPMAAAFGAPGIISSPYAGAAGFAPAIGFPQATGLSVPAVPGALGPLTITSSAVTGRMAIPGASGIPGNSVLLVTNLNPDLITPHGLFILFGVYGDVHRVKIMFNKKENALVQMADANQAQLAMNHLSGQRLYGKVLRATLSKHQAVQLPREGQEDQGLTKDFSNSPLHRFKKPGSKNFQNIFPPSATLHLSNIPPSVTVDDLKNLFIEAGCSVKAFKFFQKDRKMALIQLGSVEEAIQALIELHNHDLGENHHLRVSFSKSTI
UniProt Q16378: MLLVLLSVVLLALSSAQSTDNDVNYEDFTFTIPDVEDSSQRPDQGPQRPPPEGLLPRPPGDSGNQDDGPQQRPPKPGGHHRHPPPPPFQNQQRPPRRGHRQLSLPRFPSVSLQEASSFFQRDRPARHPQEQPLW
UniProt Q9UHX1: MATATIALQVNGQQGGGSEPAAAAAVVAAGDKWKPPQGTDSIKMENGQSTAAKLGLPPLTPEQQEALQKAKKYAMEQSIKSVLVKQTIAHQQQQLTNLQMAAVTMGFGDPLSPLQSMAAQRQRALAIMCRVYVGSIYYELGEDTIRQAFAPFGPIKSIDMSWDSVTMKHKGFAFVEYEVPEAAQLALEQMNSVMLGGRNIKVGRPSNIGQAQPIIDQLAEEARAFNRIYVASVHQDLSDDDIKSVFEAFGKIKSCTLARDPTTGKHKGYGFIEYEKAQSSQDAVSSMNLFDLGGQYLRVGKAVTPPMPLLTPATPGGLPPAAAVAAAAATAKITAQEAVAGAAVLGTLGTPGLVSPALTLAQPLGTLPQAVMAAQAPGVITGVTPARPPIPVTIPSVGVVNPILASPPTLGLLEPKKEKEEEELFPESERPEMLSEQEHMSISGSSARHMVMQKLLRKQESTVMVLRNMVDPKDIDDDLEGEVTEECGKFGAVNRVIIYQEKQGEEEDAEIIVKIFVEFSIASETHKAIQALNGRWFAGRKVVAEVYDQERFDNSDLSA
UniProt O00487, whole entry, looked up: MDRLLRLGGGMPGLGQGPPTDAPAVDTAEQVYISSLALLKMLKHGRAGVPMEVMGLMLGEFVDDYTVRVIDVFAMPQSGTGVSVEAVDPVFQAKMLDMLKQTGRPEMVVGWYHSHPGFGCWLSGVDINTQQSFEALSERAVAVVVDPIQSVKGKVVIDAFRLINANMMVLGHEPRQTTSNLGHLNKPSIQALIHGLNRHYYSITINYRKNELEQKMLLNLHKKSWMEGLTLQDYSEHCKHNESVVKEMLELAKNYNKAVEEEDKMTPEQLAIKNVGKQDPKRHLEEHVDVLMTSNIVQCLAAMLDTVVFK
UniProt P35236: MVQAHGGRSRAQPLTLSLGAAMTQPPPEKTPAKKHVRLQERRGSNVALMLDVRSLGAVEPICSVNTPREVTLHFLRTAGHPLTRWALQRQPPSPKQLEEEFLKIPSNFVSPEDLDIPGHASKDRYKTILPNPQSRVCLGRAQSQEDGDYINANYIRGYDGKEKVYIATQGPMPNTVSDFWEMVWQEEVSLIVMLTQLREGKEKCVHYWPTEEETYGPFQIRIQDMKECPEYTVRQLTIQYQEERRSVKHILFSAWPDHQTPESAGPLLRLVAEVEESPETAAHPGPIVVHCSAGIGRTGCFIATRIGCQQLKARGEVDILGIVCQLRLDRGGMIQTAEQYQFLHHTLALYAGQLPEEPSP
UniProt Q9UI38: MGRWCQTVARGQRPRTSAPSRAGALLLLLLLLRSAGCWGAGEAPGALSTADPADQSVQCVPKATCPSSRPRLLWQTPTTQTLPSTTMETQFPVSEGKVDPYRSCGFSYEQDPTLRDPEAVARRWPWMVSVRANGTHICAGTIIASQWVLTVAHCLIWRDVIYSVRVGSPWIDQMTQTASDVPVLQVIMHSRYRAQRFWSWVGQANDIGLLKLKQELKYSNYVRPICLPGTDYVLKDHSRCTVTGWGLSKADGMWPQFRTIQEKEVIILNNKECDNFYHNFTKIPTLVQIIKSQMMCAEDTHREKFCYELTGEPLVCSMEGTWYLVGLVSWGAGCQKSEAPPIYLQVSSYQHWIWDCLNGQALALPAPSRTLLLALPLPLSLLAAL
UniProt P40306: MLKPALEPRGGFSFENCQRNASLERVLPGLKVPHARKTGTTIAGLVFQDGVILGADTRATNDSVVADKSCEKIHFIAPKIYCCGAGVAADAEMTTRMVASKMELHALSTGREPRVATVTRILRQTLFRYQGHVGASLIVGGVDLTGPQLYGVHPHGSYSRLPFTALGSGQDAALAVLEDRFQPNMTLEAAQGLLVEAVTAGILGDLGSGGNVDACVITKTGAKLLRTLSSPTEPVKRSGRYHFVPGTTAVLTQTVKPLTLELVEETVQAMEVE
UniProt P28062: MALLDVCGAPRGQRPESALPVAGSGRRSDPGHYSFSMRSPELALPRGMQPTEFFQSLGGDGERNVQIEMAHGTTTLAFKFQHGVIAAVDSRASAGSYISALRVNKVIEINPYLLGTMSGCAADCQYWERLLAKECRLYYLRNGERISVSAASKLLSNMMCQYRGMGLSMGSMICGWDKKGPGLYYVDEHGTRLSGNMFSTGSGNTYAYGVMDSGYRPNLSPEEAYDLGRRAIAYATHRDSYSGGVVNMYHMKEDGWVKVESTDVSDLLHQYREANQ

log2 fold change, inactive:
PSMB3 (UniProt P49720) 0
PTPA isoform 2 (UniProt Q15257) -0.02
PSMD13 (UniProt Q9UNM6) -0.027
PTEN isoform 2 (UniProt P60484) 0.048
PTK2 (UniProt Q05397) -0.022
PSME3 isoform 2 (UniProt P61289) 0.002
PSME2 (UniProt Q9UL46) 0.049
PUM2 (UniProt Q8TB72) 0.049
PRXL2A (UniProt Q9BRX8) -0.025
PRPH isoform 2 (UniProt P41219) 0.014
PTMS (UniProt P20962) 0.024
PTBP3 isoform 4 (UniProt O95758) 0.015
PTCD3 (UniProt Q96EY7) -0.045
PRR4 (UniProt Q16378) 0.026
PSMD4 (UniProt Q5VWC4) -0.029
PRR14L (UniProt Q5THK1) -0.084
PUF60 isoform 2 (UniProt Q9UHX1) 0.044
PSMD14 (UniProt O00487) 0.019
PTPRJ (UniProt Q12913) -0.075
PSEN2 (UniProt P49810) 0.096
PTPN7 isoform 3 (UniProt P35236) -0.025
PRRC2A (UniProt P48634) -0.008
PSMA7 (UniProt H0Y586) 0.058

Each target was assayed with CS(=O)(=O)CCNCc1ccc(-c2ccc3ncnc(Nc4ccc(OCc5cccc(F)c5)c(Cl)c4)c3c2)o1 [lapatinib] in the same assay as above.
Procedure, shortened: as §1

log2 fold change, inactive:
PRSS21 (UniProt Q9Y6M0) -0.072
PSMB3 (UniProt P49720) -0.019
PTPA isoform 2 (UniProt Q15257) 0.016
PSMD13 (UniProt Q9UNM6) -0.025
PTEN isoform 2 (UniProt P60484) 0.014
PTK2 (UniProt Q05397) -0.116
PSME3 isoform 2 (UniProt P61289) 0.009
PSME2 (UniProt Q9UL46) 0.006
PUM2 (UniProt Q8TB72) -0.009
PRPH isoform 2 (UniProt P41219) 0.082
PTMS (UniProt P20962) 0.029
PTBP3 isoform 4 (UniProt O95758) 0.003
PTCD3 (UniProt Q96EY7) 0.011
PRR4 (UniProt Q16378) 0.047
PUF60 isoform 2 (UniProt Q9UHX1) -0.038
PSMD14 (UniProt O00487) 0.003
PRSS50 (UniProt Q9UI38) -0.038
PTPRJ (UniProt Q12913) 0.043
PSMB10 (UniProt P40306) -0.088
PWWP2B (UniProt Q6NUJ5) 0.012
PSMB8 (UniProt P28062) 0.017
PTPN7 isoform 3 (UniProt P35236) -0.025
PRRC2A (UniProt P48634) -0.02
PSMA7 (UniProt H0Y586) -0.036

Source: the supplement of paper PMC10849652
